PubChem BioAssay AID1259308, NCATS | 2017
In all, the deposit lists about 59,000 reagents; this is a random part of them. About 1,510 of them (2.6%) count as active. 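Calls use total luciferase alone and ignore viability, so some active siRNAs may act by altering cell number.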 Reagents against one gene are numbered here. Further read-outs or replicates are left out here.

Assay: 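Knock-downs that increase output of a recombinant reporter protein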 (primary screen)
System: human HEK293 embryonic kidney cells stably expressing firefly luciferase (HEK-CMV-Luc2-Hygro)
Knock-down reagent: single siRNA against human genes, 0.8 pmol siRNA per well
Time to read-out: 72 h
Measurement: 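Reporter luminescence and viable-cell signal on separate replicate plates, given as percent of non-targeting control and median/MAD z-scores, plus per-cell luciferase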
Scale: total luciferase, z-score and total luciferase, % of control: higher = more reporter protein produced
Active means: 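Active when the median/MAD z-score for overall luciferase is greater than 3; a gene was taken forward for validation with new siRNAs if at least two of its three siRNAs passed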
Calls: active = raised luciferase; inactive = no rise

TBPL1 #1
- total luciferase, z-score: 0.0247
- total luciferase, % of control: 82.4
- call: inactive

TBPL1 #2
- total luciferase, z-score: -1.53
- total luciferase, % of control: 51.5
- call: inactive

TBPL1 #3
- total luciferase, z-score: 1.32
- total luciferase, % of control: 108
- call: inactive

MOCS3 #1
- total luciferase, z-score: -1.44
- total luciferase, % of control: 53.2
- call: inactive

MOCS3 #2
- total luciferase, z-score: 3.15
- total luciferase, % of control: 145
- call: active

MOCS3 #3
- total luciferase, z-score: -0.93
- total luciferase, % of control: 63.4
- call: inactive

OSBPL5 #1
- total luciferase, z-score: 1.11
- total luciferase, % of control: 104
- call: inactive

OSBPL5 #2
- total luciferase, z-score: 0.343
- total luciferase, % of control: 88.7
- call: inactive

OSBPL5 #3
- total luciferase, z-score: 1.26
- total luciferase, % of control: 107
- call: inactive

OR5D16 #1
- total luciferase, z-score: -0.699
- total luciferase, % of control: 68
- call: inactive

OR5D16 #2
- total luciferase, z-score: -0.65
- total luciferase, % of control: 68.9
- call: inactive

OR5D16 #3
- total luciferase, z-score: 0.112
- total luciferase, % of control: 84.1
- call: inactive

NOAZFP #1
- total luciferase, z-score: 0.262
- total luciferase, % of control: 87.1
- call: inactive

NOAZFP #2
- total luciferase, z-score: 1.3
- total luciferase, % of control: 108
- call: inactive

NOAZFP #3
- total luciferase, z-score: -0.776
- total luciferase, % of control: 66.4
- call: inactive

MYT1L-AS1 #1
- total luciferase, z-score: -0.128
- total luciferase, % of control: 79.3
- call: inactive

MYT1L-AS1 #2
- total luciferase, z-score: 0.644
- total luciferase, % of control: 94.7
- call: inactive

MYT1L-AS1 #3
- total luciferase, z-score: -1.25
- total luciferase, % of control: 57.1
- call: inactive

SLC30A8 #1
- total luciferase, z-score: 1.21
- total luciferase, % of control: 106
- call: inactive

SLC30A8 #2
- total luciferase, z-score: -0.883
- total luciferase, % of control: 64.3
- call: inactive

SLC30A8 #3
- total luciferase, z-score: -1.66
- total luciferase, % of control: 48.8
- call: inactive

In a second layout: 2 of the entries above
Gene,reagent,"total luciferase, z-score","total luciferase, % of control",call
MYT1L-AS1,1,-0.128,79.3,inactive
MYT1L-AS1,2,0.644,94.7,inactive
